# US20220257782A1 (GENESEN CO., LTD., priority 2019, published 2022)
# Assay: peptide made by a vendor
# Conditions: whole synthesis, 220 nm
substance,measurement,value
PEPTIDE1{R.Q.I.K.I.W.F.Q.N.R.R.M.K.W.K.K.P.W.C.K.Y.Q.M.L.Q.A.L.T}$$$$V2.0,purity (crude or final not stated),97.17%

# Some peptides are written in HELM: one residue between dots, names in brackets for other building blocks, links after the first $.
